Earlier results in patent US20240197687A1, “METHODS OF TREATING NEUROINFLAMMATION AND INHIBITING MONOAMINE OXIDASE-A AND RESTORING/UPREGULATING/INCREASING IL-13 AND AND PGC-1 BY ADMINISTERING ORAL DOSAGE FORM CONTAINING MICRONIZED AND NONMICRONIZED PARTICULATE METAXALONE, ALGINIC ACID AND PROPYLENE GLYCOL ALGINATE” (Primus Pharmaceuticals, Inc., priority 2022, published 2024).

Tested on: PINP rats
Details: rat; paclitaxel 2 mg/kg i.p. every other day, cumulative 8 mg/kg; cited from earlier work

Structure (SMILES): COc1ccc(CC(C)NCC(O)c2ccc(O)c(NC=O)c2)cc1 (centres unmarked) [formoterol]
- established PINP (mechanical allodynia, paw withdrawal thresholds): attenuated
- onset of PINP: delayed
